Laboratory results: PubChem BioAssay AID686943 (Drosophila RNAi Screening Center, 2013)
The screen tested about 23,000 reagents; shown is an unselected part of those with a known target gene and a result. 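Extra replicates exist only for a retested subset of genes; insulin dose and duration not given; both raised and lowered dpERK matter.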 Reagent sequences are not shown. The record does not give: the amount of reagent, the time to read-out.

Screen: 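Knockdowns that increase or decrease active ERK after insulin receptor stimulation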 (primary screen)
Cells: Drosophila S2R+ haemocyte-like cells expressing YFP-tagged ERK (Rolled)
Reagent: long dsRNA against Drosophila genes
Conditions: insulin stimulation versus unstimulated cells; dose and duration not given
Detection: 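Antibody staining for doubly phosphorylated ERK divided by ERK-YFP signal, as plate z-scores, in insulin-treated and untreated cells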
Direction: replicate 1, z-score of dpERK with insulin and replicate 2, z-score of dpERK with insulin: higher = more active ERK per ERK-YFP after insulin; replicate 1, z-score of dpERK under basal conditions: higher = more basal active ERK per ERK-YFP; replicate 1, z-score of ERK-YFP with insulin: higher = more YFP-tagged ERK signal

no.	gene	dsRNA	replicate 1, z-score of dpERK with insulin	replicate 2, z-score of dpERK with insulin	replicate 1, z-score of dpERK under basal conditions	replicate 1, z-score of ERK-YFP with insulin
1	Ir56a (GeneID 246471)	DRSC05776	-0.25	0.77	1.84	0.41
2	maf-S (GeneID 37336)	DRSC07348	-1.16	-1.29	-0.2	0.77
3	CG10077 (GeneID 38756)	DRSC09691	-0.4	-0.06	1.25	2.29
4	Cpr92F (GeneID 42450)	DRSC15819	0.61	0.11	0.53	0.24
5	CG32473 (GeneID 41636)	DRSC14352	-0.04	0.11	0.14	0.62
6	CG32473 (GeneID 41636)	DRSC16446	-0.63	0	1.29	-1.01
7	Tsen54 (GeneID 39397)	DRSC10527	0.53	0.06	-2.09	0.01
8	Setd3 (GeneID 31638)	DRSC17840	-0.37	-1.27	0.19	-0.37
9	Setd3 (GeneID 31638)	DRSC18269	-0.08	-0.15	-0.27	0.1
10	nsl1 (GeneID 41911)	DRSC15625	3.4	-0.56	0.16	-2.52
11	Pak3 (GeneID 41995)	DRSC15017	-1.54	-3.44	0.92	-0.83
12	D19B (GeneID 38717)	DRSC11134	-0.56	-4.41	-0.36	0.12
13	CG13607 (GeneID 42859)	DRSC14610	-0.23	0	1.31	-0.19
14	RpL35 (GeneID 31483)	DRSC18347	-1.31	-0.25	-3.31	-1.69
15	lncRNA:Hsromega (GeneID 3772547)	DRSC22875	0.34	0.06	0.15	-0.02
16	CG8138 (GeneID 41619)	DRSC16386	0.73	0.43	0.39	-0.26
17	Had2 (GeneID 36624)	DRSC05971	0.02	-0.04	0.46	0.33
18	CG14642 (GeneID 40532)	DRSC12228	-0.08	0.09	-0.15	-0.66
19	Tm2 (GeneID 41853)	DRSC16887	-1.52	0.14	-0.92	0.32
20	CHES-1-like (GeneID 31678)	DRSC18447	-0.83	-0.51	-1.52	0.92
21	Gtpx (GeneID 38413)	DRSC08221	-0.7	-0.09	0.03	0.87
22	Gtpx (GeneID 38413)	DRSC22117	0.43	-0.21	0.93	0
23	CG5968 (GeneID 34986)	DRSC02916	-1.03	-0.2	1.68	0.33
24	CG14315 (GeneID 42164)	DRSC14794	0.13	-0.09	2.27	-0.31
25	CG18004 (GeneID 36154)	DRSC06705	0.56	0.02	-0.79	-0.37
26	CG30098 (GeneID 246456)	DRSC05605	-0.01	-0.36	4.08	0.18
27	CG9010 (GeneID 36904)	DRSC07320	-0.35	0.3	1.4	0.44
28	CG6769 (GeneID 32770)	DRSC20006	0.94	-0.32	-0.79	1.29
29	UbcE2H (GeneID 31728)	DRSC18221	-0.47	-2.4	0.49	0.42
30	CG32590 (GeneID 318103)	DRSC19594	0.48	0.95	0.12	0.39
31	rn (GeneID 40879)	DRSC12500	-3.13	-3.69	-5	-3.4
32	rn (GeneID 40879)	DRSC12543	0.76	-0.28	0.77	-0.29
33	rn (GeneID 40879)	DRSC12544	-1.03	-0.76	0.26	-1.2
34	rn (GeneID 40879)	DRSC12546	0.05	-1.19	0.36	0.08
35	rn (GeneID 40879)	DRSC22291	-0.84	-1.78	-1.69	-0.8
36	Roc2 (GeneID 36246)	DRSC07313	0.91	0.14	0.22	-0.14
37	shps (GeneID 42892)	DRSC14614	0.26	-0.12	0.68	-0.14
38	Mlh1 (GeneID 35796)	DRSC07473	0.44	0.17	0.56	0.41
39	mim (GeneID 2768716)	DRSC05013	-2.02	-3.71	-1.2	-1.86
40	Hem (GeneID 40462)	DRSC11865	-0.02	0.25	1.22	-4.83
41	Cht4 (GeneID 49815)	DRSC04603	-0.91	-1.2	-1.45	1.58
42	Paip1 (GeneID 36913)	DRSC07302	-2.92	-3.11	-0.25	0.11
43	CG14817 (GeneID 31145)	DRSC18547	-0.16	-0.87	-1.08	0.76
44	CG8839 (GeneID 36340)	DRSC07285	-0.02	0.1	-0.2	0.14
45	beat-VI (GeneID 43377)	DRSC14474	0.14	-0.04	-0.51	-0.06
46	beat-VI (GeneID 43377)	DRSC14727	0.15	0.51	0.08	0.1
47	Pdi (GeneID 39651)	DRSC11250	0.33	0.72	-0.49	-0.22
48	Pgant5 (GeneID 326151)	DRSC03149	0.5	1.27	0.19	0.64
49	RSG7 (GeneID 32674)	DRSC20274	1.69	0.69	0.54	-0.17
50	RSG7 (GeneID 32674)	DRSC22852	0.54	0.42	1.17	0.36
51	Culd (GeneID 38946)	DRSC10262	-0.1	-0.71	0.52	0.71
52	brv2 (GeneID 39932)	DRSC10226	0.2	1.64	-1.43	1.12
53	CG6867 (GeneID 32782)	DRSC20013	0.58	0.13	1.24	0.37
54	Ufsp1 (GeneID 246489)	DRSC04958	0.53	0.59	-0.07	-0.71
55	CheB38b (GeneID 2768933)	DRSC22874	-0.2	0.68	-0.27	0.24
56	pyr (GeneID 36255)	DRSC06319	1.2	1.22	-1.03	-0.37
57	pyr (GeneID 36255)	DRSC22520	0.72	-0.44	0.7	-1.58

A run of entries taken from the entries so far:
no.	gene	dsRNA	replicate 1, z-score of dpERK with insulin	replicate 2, z-score of dpERK with insulin	replicate 1, z-score of dpERK under basal conditions	replicate 1, z-score of ERK-YFP with insulin
30	CG32590 (GeneID 318103)	DRSC19594	0.48	0.95	0.12	0.39
31	rn (GeneID 40879)	DRSC12500	-3.13	-3.69	-5	-3.4
32	rn (GeneID 40879)	DRSC12543	0.76	-0.28	0.77	-0.29
33	rn (GeneID 40879)	DRSC12544	-1.03	-0.76	0.26	-1.2
34	rn (GeneID 40879)	DRSC12546	0.05	-1.19	0.36	0.08
